Measured values taken from the supplement of paper PMC10849652.
This is one part of the list.

Sequences of proteins named here, by UniProt entry; tags and fusion partners are left off. A change or cut given only in a name is not applied to a line headed by its entry.
UniProt Q8N357: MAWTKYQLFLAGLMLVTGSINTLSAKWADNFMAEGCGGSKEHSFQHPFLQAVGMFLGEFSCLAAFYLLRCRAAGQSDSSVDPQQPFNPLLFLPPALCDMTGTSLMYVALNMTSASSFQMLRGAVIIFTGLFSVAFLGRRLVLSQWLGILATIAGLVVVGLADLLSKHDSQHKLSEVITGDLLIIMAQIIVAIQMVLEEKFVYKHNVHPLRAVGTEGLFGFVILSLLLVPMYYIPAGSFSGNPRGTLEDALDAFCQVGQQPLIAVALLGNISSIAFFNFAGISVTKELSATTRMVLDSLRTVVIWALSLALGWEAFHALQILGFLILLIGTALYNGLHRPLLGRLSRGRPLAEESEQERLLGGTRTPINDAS
UniProt Q9BRV3: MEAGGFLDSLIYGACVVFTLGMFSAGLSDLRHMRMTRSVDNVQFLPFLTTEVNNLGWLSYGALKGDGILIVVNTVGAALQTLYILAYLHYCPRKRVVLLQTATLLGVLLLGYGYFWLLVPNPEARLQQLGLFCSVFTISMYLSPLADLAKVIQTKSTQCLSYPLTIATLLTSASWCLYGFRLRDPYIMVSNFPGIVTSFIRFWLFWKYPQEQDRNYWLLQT
UniProt Q9NTN3, whole entry, looked up: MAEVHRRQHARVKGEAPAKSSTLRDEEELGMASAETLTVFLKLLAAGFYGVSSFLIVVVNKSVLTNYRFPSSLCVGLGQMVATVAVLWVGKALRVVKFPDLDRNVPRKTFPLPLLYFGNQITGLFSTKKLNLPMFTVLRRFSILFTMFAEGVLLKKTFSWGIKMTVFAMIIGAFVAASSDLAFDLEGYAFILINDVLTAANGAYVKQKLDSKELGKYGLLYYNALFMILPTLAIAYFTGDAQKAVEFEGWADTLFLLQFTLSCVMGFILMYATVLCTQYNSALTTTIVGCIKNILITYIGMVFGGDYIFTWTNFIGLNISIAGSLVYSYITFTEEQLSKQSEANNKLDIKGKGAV
UniProt Q7Z769: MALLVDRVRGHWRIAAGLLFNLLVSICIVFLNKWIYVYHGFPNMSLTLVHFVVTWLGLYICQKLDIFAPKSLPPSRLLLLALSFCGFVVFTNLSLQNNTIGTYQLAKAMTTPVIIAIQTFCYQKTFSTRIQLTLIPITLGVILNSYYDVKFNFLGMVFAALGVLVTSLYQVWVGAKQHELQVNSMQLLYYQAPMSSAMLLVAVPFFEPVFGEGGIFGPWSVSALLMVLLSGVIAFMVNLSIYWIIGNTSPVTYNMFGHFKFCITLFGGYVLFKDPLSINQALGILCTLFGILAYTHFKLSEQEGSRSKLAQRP
UniProt P48751: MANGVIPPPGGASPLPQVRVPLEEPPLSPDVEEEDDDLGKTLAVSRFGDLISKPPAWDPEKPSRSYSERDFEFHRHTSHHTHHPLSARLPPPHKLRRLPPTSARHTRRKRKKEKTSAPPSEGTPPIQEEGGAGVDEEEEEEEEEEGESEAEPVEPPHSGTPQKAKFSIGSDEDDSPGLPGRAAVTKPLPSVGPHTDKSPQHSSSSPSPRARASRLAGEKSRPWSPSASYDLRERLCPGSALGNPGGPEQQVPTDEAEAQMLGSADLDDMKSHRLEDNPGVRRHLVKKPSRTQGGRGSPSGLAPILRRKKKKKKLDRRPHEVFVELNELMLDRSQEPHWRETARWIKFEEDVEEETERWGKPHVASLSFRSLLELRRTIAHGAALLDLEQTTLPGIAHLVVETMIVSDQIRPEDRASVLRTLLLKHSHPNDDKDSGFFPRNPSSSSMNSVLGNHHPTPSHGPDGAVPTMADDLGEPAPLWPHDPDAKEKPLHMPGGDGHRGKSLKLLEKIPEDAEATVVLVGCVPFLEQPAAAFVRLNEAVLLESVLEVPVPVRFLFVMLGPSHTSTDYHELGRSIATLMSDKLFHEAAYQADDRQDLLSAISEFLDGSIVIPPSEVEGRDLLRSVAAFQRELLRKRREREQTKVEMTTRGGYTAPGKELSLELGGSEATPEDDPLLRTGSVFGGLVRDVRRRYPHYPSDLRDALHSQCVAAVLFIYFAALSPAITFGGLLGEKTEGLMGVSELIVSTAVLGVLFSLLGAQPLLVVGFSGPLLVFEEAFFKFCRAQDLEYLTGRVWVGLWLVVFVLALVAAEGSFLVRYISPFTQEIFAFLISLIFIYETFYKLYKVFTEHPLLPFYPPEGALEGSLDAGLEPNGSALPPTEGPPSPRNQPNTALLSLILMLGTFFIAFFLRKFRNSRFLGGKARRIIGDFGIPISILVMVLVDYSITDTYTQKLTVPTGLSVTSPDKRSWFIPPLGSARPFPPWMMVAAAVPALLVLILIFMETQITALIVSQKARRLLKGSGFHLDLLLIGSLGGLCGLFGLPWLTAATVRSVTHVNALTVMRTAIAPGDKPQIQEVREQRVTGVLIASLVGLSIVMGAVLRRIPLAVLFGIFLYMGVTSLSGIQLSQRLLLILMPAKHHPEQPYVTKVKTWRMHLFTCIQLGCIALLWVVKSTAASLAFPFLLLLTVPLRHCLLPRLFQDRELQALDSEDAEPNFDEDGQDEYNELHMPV
UniProt Q9C0K1: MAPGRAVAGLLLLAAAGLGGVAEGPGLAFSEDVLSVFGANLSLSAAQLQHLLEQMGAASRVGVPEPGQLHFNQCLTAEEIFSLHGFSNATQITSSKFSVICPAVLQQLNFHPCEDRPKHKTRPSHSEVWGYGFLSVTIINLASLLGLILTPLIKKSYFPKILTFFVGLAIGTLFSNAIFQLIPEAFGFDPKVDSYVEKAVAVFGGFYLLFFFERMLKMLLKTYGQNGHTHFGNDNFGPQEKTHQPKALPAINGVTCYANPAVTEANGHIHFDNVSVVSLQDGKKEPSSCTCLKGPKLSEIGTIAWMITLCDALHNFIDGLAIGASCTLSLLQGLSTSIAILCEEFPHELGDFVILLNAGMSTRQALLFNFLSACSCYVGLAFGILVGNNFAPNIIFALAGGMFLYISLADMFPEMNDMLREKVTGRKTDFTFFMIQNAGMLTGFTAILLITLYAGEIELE
UniProt Q96A29: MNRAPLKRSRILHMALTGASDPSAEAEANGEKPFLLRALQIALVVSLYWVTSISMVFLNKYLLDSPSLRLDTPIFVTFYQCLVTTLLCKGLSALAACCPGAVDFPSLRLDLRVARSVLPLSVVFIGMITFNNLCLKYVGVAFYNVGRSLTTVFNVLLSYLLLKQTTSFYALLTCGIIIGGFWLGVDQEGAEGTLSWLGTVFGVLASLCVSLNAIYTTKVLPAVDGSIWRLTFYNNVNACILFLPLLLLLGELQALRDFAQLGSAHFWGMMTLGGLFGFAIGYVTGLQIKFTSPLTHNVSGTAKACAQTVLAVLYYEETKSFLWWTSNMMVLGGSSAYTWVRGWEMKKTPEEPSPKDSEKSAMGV
UniProt Q0GE19: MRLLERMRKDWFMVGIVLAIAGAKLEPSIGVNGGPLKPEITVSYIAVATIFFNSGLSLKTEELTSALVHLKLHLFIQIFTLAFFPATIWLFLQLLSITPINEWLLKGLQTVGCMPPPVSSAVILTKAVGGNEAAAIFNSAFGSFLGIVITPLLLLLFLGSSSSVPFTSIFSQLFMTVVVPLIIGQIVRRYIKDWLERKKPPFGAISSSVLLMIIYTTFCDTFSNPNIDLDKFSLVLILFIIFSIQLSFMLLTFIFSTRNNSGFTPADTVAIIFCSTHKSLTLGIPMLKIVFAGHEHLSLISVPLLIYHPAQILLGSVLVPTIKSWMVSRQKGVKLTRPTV
UniProt Q96QE2: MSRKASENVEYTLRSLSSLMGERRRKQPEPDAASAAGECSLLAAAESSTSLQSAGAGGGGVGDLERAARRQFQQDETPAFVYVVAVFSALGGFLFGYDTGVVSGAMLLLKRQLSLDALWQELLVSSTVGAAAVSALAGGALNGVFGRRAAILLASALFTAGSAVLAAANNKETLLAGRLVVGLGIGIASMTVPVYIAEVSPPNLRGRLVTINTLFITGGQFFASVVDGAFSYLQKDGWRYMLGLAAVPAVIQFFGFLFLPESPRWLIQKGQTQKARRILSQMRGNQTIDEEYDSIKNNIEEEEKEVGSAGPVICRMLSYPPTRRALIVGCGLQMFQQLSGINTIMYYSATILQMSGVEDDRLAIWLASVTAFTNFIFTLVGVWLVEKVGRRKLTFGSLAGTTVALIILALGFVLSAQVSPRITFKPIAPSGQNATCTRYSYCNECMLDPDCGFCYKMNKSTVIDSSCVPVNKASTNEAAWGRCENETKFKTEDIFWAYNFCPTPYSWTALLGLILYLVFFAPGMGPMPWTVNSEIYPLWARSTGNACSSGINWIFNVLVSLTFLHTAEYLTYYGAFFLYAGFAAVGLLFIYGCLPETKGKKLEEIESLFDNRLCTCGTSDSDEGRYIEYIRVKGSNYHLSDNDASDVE
UniProt Q96K37: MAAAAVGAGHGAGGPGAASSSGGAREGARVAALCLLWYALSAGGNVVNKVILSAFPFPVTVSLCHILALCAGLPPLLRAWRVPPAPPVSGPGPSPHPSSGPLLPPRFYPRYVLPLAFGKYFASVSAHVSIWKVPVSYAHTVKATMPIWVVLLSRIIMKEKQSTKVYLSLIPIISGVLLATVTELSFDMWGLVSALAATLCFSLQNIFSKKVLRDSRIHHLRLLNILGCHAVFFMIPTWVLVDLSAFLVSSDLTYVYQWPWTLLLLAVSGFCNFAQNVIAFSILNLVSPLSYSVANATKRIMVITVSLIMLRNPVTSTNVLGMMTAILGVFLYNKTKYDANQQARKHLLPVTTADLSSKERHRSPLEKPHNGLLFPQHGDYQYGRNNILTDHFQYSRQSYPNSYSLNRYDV
UniProt A1A5C7: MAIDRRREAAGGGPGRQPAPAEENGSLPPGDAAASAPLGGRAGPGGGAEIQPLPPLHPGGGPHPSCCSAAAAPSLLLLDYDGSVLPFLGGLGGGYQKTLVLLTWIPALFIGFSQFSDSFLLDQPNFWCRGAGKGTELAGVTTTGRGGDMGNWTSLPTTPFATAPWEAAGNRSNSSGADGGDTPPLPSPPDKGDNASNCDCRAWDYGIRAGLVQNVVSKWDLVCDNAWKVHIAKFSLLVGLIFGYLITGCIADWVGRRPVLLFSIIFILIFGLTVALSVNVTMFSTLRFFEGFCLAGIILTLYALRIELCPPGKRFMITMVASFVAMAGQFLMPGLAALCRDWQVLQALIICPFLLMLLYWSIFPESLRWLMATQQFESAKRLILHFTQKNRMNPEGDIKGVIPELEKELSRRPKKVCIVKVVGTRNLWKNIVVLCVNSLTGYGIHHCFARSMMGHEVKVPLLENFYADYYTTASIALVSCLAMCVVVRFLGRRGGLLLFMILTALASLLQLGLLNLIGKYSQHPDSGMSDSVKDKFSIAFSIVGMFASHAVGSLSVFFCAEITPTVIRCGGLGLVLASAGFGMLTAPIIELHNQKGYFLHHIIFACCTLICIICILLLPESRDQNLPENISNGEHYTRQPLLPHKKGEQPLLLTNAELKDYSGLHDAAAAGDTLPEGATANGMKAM
UniProt Q6ZP29: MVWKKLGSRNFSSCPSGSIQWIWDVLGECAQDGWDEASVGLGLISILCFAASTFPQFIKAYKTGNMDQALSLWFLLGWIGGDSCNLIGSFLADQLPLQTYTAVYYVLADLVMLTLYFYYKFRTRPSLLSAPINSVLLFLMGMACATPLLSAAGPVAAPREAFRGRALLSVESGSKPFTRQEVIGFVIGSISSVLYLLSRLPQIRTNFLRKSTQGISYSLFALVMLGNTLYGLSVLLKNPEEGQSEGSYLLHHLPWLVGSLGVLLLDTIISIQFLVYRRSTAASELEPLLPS
UniProt P50443: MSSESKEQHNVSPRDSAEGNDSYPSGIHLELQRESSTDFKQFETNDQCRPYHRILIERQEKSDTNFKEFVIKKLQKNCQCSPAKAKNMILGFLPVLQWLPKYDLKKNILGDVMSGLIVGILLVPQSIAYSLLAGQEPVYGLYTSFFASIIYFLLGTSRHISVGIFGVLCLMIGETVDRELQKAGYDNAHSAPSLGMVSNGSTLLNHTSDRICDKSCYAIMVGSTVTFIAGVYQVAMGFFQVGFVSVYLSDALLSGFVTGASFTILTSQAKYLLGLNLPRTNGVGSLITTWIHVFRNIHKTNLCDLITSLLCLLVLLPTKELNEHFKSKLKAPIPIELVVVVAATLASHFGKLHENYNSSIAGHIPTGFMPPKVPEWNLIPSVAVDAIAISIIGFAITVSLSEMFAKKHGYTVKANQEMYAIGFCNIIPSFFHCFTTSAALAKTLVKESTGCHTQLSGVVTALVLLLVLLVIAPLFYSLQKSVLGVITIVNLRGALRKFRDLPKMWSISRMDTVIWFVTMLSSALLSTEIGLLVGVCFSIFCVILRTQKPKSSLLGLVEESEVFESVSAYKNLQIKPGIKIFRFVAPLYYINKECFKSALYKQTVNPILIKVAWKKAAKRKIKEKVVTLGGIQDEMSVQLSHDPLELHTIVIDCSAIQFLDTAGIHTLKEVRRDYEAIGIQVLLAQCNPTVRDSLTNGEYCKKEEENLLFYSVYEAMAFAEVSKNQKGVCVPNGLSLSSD

compound: COc1cc(C(=O)O)ccc1NC(=O)[C@@H]1N[C@@H](CC(C)(C)C)[C@](C#N)(c2ccc(Cl)cc2F)[C@H]1c1cccc(Cl)c1F [idasanutlin]; experiment: log2 fold change, soluble protein after heating vs DMSO (PISA); higher = thermal stabilisation; K562 cells, 10 uM, 30 min; active = over 0.2 and 3.5 SD of the protein, either way, in both replicates (recomputed)
Summary of the method: (§1)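 Thermal stability values are relative to control samples and come from duplicates. They are expressed as log2 fold changes. For measurement, K562 cells (2×10^6 cells/mL) received 10 μM compound for 30 min, and aliquots were heated for 3 min over 48°C-58°C, pooled, and extracted at 4°C in PBS with 0.5% NP-40. Soluble protein, the supernatant after 21,000xg for 90 min, was quantified by TMTpro 16plex LC-MS/MS with equalised channel sums.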

log2 fold change, inactive:
SLC35F6 (UniProt Q8N357) 0.02
SLC50A1 (UniProt Q9BRV3) -0.313
SLC35D1 (UniProt Q9NTN3) -0.105
SLC35E3 (UniProt Q7Z769) -0.123
SLC46A1 (UniProt Q96NT5) -0.107
SLC4A3 isoform 3 (UniProt P48751) -0.283
SLC22A4 (UniProt Q9H015) 0.03
SLC25A35 (UniProt Q3KQZ1) 0.002
SLC39A8 (UniProt Q9C0K1) -0.046
SLC35A5 (UniProt Q9BS91) -0.104
SLC3A2 (UniProt F5GZS6) -0.119
SLC31A1 (UniProt O15431) -0.069
SLC39A3 (UniProt Q9BRY0) -0.04
SLC35C2 isoform 3 (UniProt Q9NQQ7) 0.017
SLC35C1 (UniProt Q96A29) 0.002
SLC10A7 isoform 1 (UniProt Q0GE19) -0.027
SLC2A13 (UniProt Q96QE2) 0.045
SLC35G1 (UniProt Q2M3R5) -0.172
SLC35E1 (UniProt Q96K37) 0.027
SLC2A4 (UniProt P14672) -0.093
SLC1A3 (UniProt P43003) 0

compound: COc1cc(Nc2ncc3c(n2)-c2ccc(Cl)cc2C(c2c(F)cccc2OC)=NC3)ccc1C(=O)O [alisertib]; experiment: as above
Summary of the method: as §1

log2 fold change, inactive:
SLC3A2 (UniProt F5H867) -0.024
SLC27A6 (UniProt Q9Y2P4) -0.072
SLC35F6 (UniProt Q8N357) -0.052
SLC50A1 (UniProt Q9BRV3) -0.132
SLC22A23 (UniProt A1A5C7) 0.059
SLC4A3 isoform 3 (UniProt P48751) -0.009
SLC66A2 (UniProt Q8N2U9) -0.002
SLC52A2 (UniProt Q9HAB3) -0.279
SLC66A1 (UniProt Q6ZP29) 0.139
SLC39A8 (UniProt Q9C0K1) -0.05
SLC6A19 (UniProt Q695T7) -0.146
SLC3A2 (UniProt F5GZS6) -0.017
SLC31A1 (UniProt O15431) 0.082
SLC39A3 (UniProt Q9BRY0) 0.055
SLC26A2 (UniProt P50443) -0.36
SLC66A3 (UniProt Q8N755) -0.024
SLC36A4 (UniProt Q6YBV0) 0.068
SLC10A7 isoform 1 (UniProt Q0GE19) -0.11
SLC36A1 (UniProt Q7Z2H8) -0.191
SLC10A3 (UniProt P09131) 0.019
SLC35E1 (UniProt Q96K37) 0.01
SLC2A4 (UniProt P14672) -0.099
SLC1A3 (UniProt P43003) 0.017
